Here are results for 22 compounds from PubChem BioAssay AID248 (DTP/NCI, 2004).

The list does not hold the whole screen: it gathers tests that were run many times, whatever their T/C, doses with no T/C, and many T/C values between a quarter and a half above the control. Further doses and runs are listed elsewhere. T/C is the treated group as % of the vehicle group. Some doses have a count of surviving animals in place of a T/C: the source files T/C as zero there, which appears to mark a toxic dose or a test without result, not a measured value. Some survivor counts are full or nearly so, which does not show that the dose was tolerated: the source hardly ever lists a survival T/C far under the control, and the zero likely stands for such cases as well. Counts of survivors are from the toxicity check (mostly the fifth day) where no day follows; animals may have died later. Schedules are NCI's codes, read here as Q, the interval in days (D) or hours (H), X, the number of doses. Some schedule codes hold Z or #, which are not explained here. Some structures stand for samples that the source files as different forms (salt, stereo form or complex); doses refer to the form tested. Brackets with × stand for listed records that agree. Some entries hold several experiments; their values stand side by side, smallest first. For survival time, the PubChem record calls one and a half times the control and up active, and a quarter to a half above the control has no call in these data; cut-offs in other NCI protocols can differ. Some T/C values are followed by the survivors on the day toxicity was checked, most often the fifth; without a count, all were alive then.

The test system of the test is L1210 leukemia ip in BDF1 mice, survival T/C. In words: NCI In Vivo Anticancer Drug Screen. Data for tumor model L1210 Leukemia (intraperitoneal) in B6D2F1 (BDF1) mice. The following applies: T/C endpoint: mean survival time, higher T/C = longer survival.
[1] abbreviates: dose: 100.0 mg/kg/injection, schedule: Q01DX009 (ip), vehicle: Klucel (hydroxypropylcellulose) (HPC).
[2] abbreviates: dose: 100.0 mg/kg/injection, schedule: Q04DX003 (ip), vehicle: Klucel (hydroxypropylcellulose) (HPC).
Setting [3] is: dose: 200.0 mg/kg/injection, schedule: Q01DX009 (ip), vehicle: Klucel (hydroxypropylcellulose) (HPC).
[4] abbreviates: dose: 200.0 mg/kg/injection, schedule: Q04DX003 (ip), vehicle: Klucel (hydroxypropylcellulose) (HPC).
[5] abbreviates: dose: 400.0 mg/kg/injection, schedule: Q01DX009 (ip), vehicle: Klucel (hydroxypropylcellulose) (HPC).
The mark [6] stands for this setting: dose: 400.0 mg/kg/injection, schedule: Q04DX003 (ip), vehicle: saline with Tween-80.
Where [7] appears, read: dose: 200.0 mg/kg/injection, schedule: Q01DX009 (ip), vehicle: saline with Tween-80.
The mark [8] stands for this setting: dose: 400.0 mg/kg/injection, schedule: Q01DX009 (ip), vehicle: saline with Tween-80.
Setting [9] is: dose: 400.0 mg/kg/injection, schedule: Q01DX001 (ip), vehicle: carboxymethylcellulose (CMC).

Take `CC1(C)N=C(N)N=C(N)N1c1ccc(OCc2ccc(C(=O)Nc3cccc(S(=O)(=O)F)c3)cc2)c(Cl)c1`: the T/C reads like this: (dose: 25.0 mg/kg/injection, schedule: Q01DX009 (ip), vehicle: Klucel (hydroxypropylcellulose) (HPC)) 133 % of control [5 of 6 alive]; under setting [1], 95, 102, 164 % of control; under setting [2], 133 and 146 % of control [5 of 6 alive]; under setting [4], 140 % of control. The survivor count is on record as 2 of 6 under setting [1], 6 of 6 under setting [3] and 4 of 6 under setting [5].

In the case of `O=CNc1ccccc1[N+](=O)[O-]`, under setting [6], the survivor count is reported as 3 of 3.

Turning to `CCOc1ccc(-c2nnc(Nc3ccc(S(=O)(=O)N4CCCCC4)cc3)s2)cc1`, the survivor count was 3 of 3 under setting [7] and 3 of 3 under setting [8].

For `CC1(C)CC[N+]1(C)C`, the T/C (dose: 25.0 mg/kg/injection, schedule: Q04DX003 (ip), vehicle: saline) is 127 % of control. Further, the survivor count (dose: 100.0 mg/kg/injection, schedule: Q04DX003 (ip), vehicle: saline) is 0 of 6 and 2 of 6; the survivor count (dose: 120.0 mg/kg/injection, schedule: Q04DX003 (ip), vehicle: saline) is recorded as 1 of 6; the survivor count (dose: 200.0 mg/kg/injection, schedule: Q04DX003 (ip), vehicle: saline) is 0 of 6 (2×); the survivor count (dose: 240.0 mg/kg/injection, schedule: Q04DX003 (ip), vehicle: saline) is 0 of 6; the survivor count (dose: 400.0 mg/kg/injection, schedule: Q04DX003 (ip), vehicle: saline) is 0 of 6 (2×).

Take `NC(N)=N/N=C\c1c[nH]c2ccc(Br)cc12`: the survivor count runs as follows: (dose: 120.0 mg/kg/injection, schedule: Q01DX Z (oral), vehicle: saline) 6 of 6; (dose: 480.0 mg/kg/injection, schedule: Q01DX Z (ip), vehicle: saline) 1 of 6; (dose: 960.0 mg/kg/injection, schedule: Q01DX Z (oral), vehicle: saline) 3 of 6.

For the compound `Clc1nn2nnnc2c2ccccc12`, the survivor count reads like this: (dose: 25.0 mg/kg/injection, schedule: Q04DX002 (ip), vehicle: Klucel (hydroxypropylcellulose) (HPC)) 3 of 3; (dose: 50.0 mg/kg/injection, schedule: Q04DX002 (ip), vehicle: Klucel (hydroxypropylcellulose) (HPC)) 0 of 3; (dose: 100.0 mg/kg/injection, schedule: Q04DX002 (ip), vehicle: Klucel (hydroxypropylcellulose) (HPC)) 0 of 3.

For `c1ccc([Se]c2ccccn2)nc1`, the survivor count (dose: 50.0 mg/kg/injection, schedule: Q01DX009 (ip), vehicle: Klucel (hydroxypropylcellulose) (HPC)) is on record as 4 of 6; the survivor count (dose: 100.0 mg/kg/injection, schedule: Q01DX001 (ip), vehicle: Klucel (hydroxypropylcellulose) (HPC)) is listed as 1 of 6; the survivor count under setting [2] is on record as 3 of 6; the survivor count (dose: 200.0 mg/kg/injection, schedule: Q01DX001 (ip), vehicle: Klucel (hydroxypropylcellulose) (HPC)) is 0 of 6; the survivor count under setting [4] is 0 of 6; the survivor count (dose: 400.0 mg/kg/injection, schedule: Q01DX001 (ip), vehicle: Klucel (hydroxypropylcellulose) (HPC)) was 0 of 6.

As to `NC(=O)/C=C\C(N)=O`, for the setting “dose: 25.0 mg/kg/injection, schedule: Q01DX009 (ip), vehicle: saline”, the survivor count was 6 of 6.

In the case of `CCCCCCCCCCCCCCCC[n+]1cccc(C(=O)NCO)c1`, the survivor count under setting [9] was 2 of 4.

In the case of `Cc1ccc(S(=O)(=O)OC2CN3CCC2CC3)cc1` (configuration not stated), the survivor count runs as follows: (dose: 100.0 mg/kg/injection, schedule: Q01DX009 (ip), vehicle: saline) 1 of 6; (dose: 200.0 mg/kg/injection, schedule: Q01DX009 (ip), vehicle: saline) 0 of 6.

Consider `CCOP(=S)(OCC)SC(C)C`, for which the survivor count under setting [6] is 0 of 6.

`Nc1ccc2c(c1)C(=NO)c1cc(N)ccc1-2`: under setting [9], the survivor count was 2 of 4.

In the case of `c1ccc(-c2nc(N3CCOCC3)nc3ccccc23)cc1`, for the setting “dose: 50.0 mg/kg/injection, schedule: Q01DX009 (ip), vehicle: saline with Tween-80”, the survivor count is given as 6 of 6.

For `O=S1OCC=CCO1`, the survivor count under setting [9] is recorded as 1 of 4.

As to `CNC(Cc1ccccc1)c1ccco1` (configuration not stated), for the setting “dose: 400.0 mg/kg/injection, schedule: Q04DX002 (ip), vehicle: saline with Tween-80”, the survivor count is 0 of 3.

Take `Nc1c(-c2ccccc2)nnn1-c1cccc(Cl)c1`: the survivor count is given as 3 of 3 (dose: 200.0 mg/kg/injection, schedule: Q04DX002 (ip), vehicle: gum acacia) and 3 of 3 (dose: 400.0 mg/kg/injection, schedule: Q04DX002 (ip), vehicle: gum acacia).

As to `CC1=NS(=O)(=O)NC(C)(C)C1`, the survivor count is given as 0 of 4 (dose: 200.0 mg/kg/injection, schedule: Q01DX001 (ip), vehicle: carboxymethylcellulose (CMC)); 2 of 6 under setting [3]; 0 of 4 under setting [9]; 0 of 6 under setting [5].

As for `CSc1nc(Cl)c(-c2ccccc2)c(N2CC2)n1`, the survivor count is 3 of 6 (dose: 100.0 mg/kg/injection, schedule: Q01DX Z (ip), vehicle: methylcellulose (MC)) and 0 of 6 (dose: 200.0 mg/kg/injection, schedule: Q01DX Z (ip), vehicle: methylcellulose (MC)).

With `NC(N)=N/N=C(/c1cccs1)C1CC1`, the survivor count (dose: 60.0 mg/kg/injection, schedule: Q01DX Z (oral), vehicle: methylcellulose (MC)) was 3 of 6; the survivor count (dose: 250.0 mg/kg/injection, schedule: Q01DX Z (ip), vehicle: methylcellulose (MC)) is given as 6 of 6; the survivor count (dose: 500.0 mg/kg/injection, schedule: Q01DX Z (ip), vehicle: methylcellulose (MC)) is 0 of 6; the survivor count (dose: 750.0 mg/kg/injection, schedule: Q01DX Z (ip), vehicle: methylcellulose (MC)) is given as 0 of 6.

For `CCOC(=O)c1ccc(N2C(=O)C=CC2=O)cc1`, the survivor count by setting is: (dose: 100.0 mg/kg/injection, schedule: Q01DX009 (ip), vehicle: saline with Tween-80) 6 of 6; under setting [7], 6 of 6; under setting [8], 3 of 6.

`O=NN(CCCl)C(=O)Nc1ccc(-c2ccc(NC(=O)N(CCCl)N=O)cc2)cc1`: the T/C is 125 % of control (dose: 31.0 mg/kg/injection, schedule: Q01DX001 (ip), vehicle: carboxymethylcellulose (CMC)); 132 % of control (dose: 62.0 mg/kg/injection, schedule: Q01DX001 (ip), vehicle: carboxymethylcellulose (CMC)); 134 % of control (dose: 125.0 mg/kg/injection, schedule: Q01DX001 (ip), vehicle: carboxymethylcellulose (CMC)).

Consider `CC(Br)C(=O)O` (configuration not stated), for which the survivor count by setting is: (dose: 200.0 mg/kg/injection, schedule: Q01DX001 (ip), vehicle: saline) 2 of 4; (dose: 400.0 mg/kg/injection, schedule: Q01DX001 (ip), vehicle: saline) 1 of 4.
